We go through 24 molecules from PubChem BioAssay AID328 (DTP/NCI, 2004).

Each structure is given as a SMILES string. The list does not hold the whole screen: it is rich in T/C values a quarter to a half above the control, in often repeated tests (any T/C) and in doses without a T/C. Further doses and runs are listed elsewhere. T/C is the treated group as % of the vehicle group. Some doses have a count of surviving animals in place of a T/C: the source holds a T/C of zero for them, seemingly a mark for toxic or unscored doses. Some doses without a T/C left all or most animals alive at the check, yet need not have been tolerated: the source hardly ever lists a survival T/C far under the control, and the zero likely stands for such cases as well. Survivors were counted at the toxicity check, usually on the fifth day, unless a day is given; later deaths do not show. Schedule codes are those of the source, read here as Q, the interval in days (D) or hours (H), X, the number of doses. For survival time, this PubChem deposit counts one and a half times the control or more as active, and values a quarter to a half above the control carry no call in these data; other NCI protocols may use other cut-offs. Some T/C values are followed by the survivors on the day toxicity was checked, most often the fifth; where none is given, no animal had died by that day.

For this test, the system named is BDF1 mice, P388 leukemia ip, median survival T/C. Description: NCI In Vivo Anticancer Drug Screen. Data for tumor model P388 Leukemia (intraperitoneal) in B6D2F1 (BDF1) mice. Particulars: T/C endpoint: median survival time, higher T/C = longer survival. In a few lines: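 Reported as T/C, where T is the survival measurement in dosed animals and C the same measurement in vehicle controls.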

Setting [1] is: dose: 200.0 mg/kg/injection, schedule: Q04DX002 (ip), vehicle: saline with Tween-80.
The mark [2] stands for this setting: dose: 400.0 mg/kg/injection, schedule: Q04DX002 (ip), vehicle: saline with Tween-80.
Where [3] appears, read: dose: 200.0 mg/kg/injection, schedule: Q01DX009 (ip), vehicle: saline.
[4] abbreviates: dose: 200.0 mg/kg/injection, schedule: Q01DX009 (ip), vehicle: Klucel (hydroxypropylcellulose) (HPC).
[5] abbreviates: dose: 400.0 mg/kg/injection, schedule: Q01DX009 (ip), vehicle: Klucel (hydroxypropylcellulose) (HPC).
The mark [6] stands for this setting: dose: 200.0 mg/kg/injection, schedule: Q04DX003 (ip), vehicle: saline.
[7] abbreviates: dose: 400.0 mg/kg/injection, schedule: Q01DX001 (ip), vehicle: saline with Tween-80.

For `CCOC(=O)Nc1nc(Cl)c(Cl)nc1Cl`, the T/C (dose: 3.12 mg/kg/injection, schedule: Q01DX009 (ip), vehicle: water) is 135 % of control and the T/C (dose: 25.0 mg/kg/injection, schedule: Q04DX003 (ip), vehicle: water) is 125 % of control. The survivor count was 5 of 6 (dose: 6.25 mg/kg/injection, schedule: Q01DX009 (ip), vehicle: water); 6 of 6 (dose: 12.5 mg/kg/injection, schedule: Q01DX009 (ip), vehicle: water); 5 of 6 (dose: 25.0 mg/kg/injection, schedule: Q01DX009 (ip), vehicle: water).
On to `CCN(CC)CC(O)CNC(=O)c1c2nc3c(C(=O)NCC(O)CN(CC)CC)ccc(C)c3oc-2c(C)c(=O)c1N` (stereo not drawn), for which the survivor count (dose: 150.0 mg/kg/injection, schedule: Q04DX002 (ip), vehicle: saline with Tween-80) is reported as 3 of 6; the survivor count under setting [1] is given as 4 of 6; the survivor count under setting [2] is 0 of 6.
In the case of `NC(=O)c1cc([N+](=O)[O-])c(Cl)c([N+](=O)[O-])c1`, the survivor count is, setting by setting: (dose: 20.0 mg/kg/injection, schedule: Q01DX009 (ip), vehicle: Klucel (hydroxypropylcellulose) (HPC)) 6 of 6; (dose: 20.0 mg/kg/injection, schedule: Q04DX003 (ip), vehicle: Klucel (hydroxypropylcellulose) (HPC)) 4 of 6; (dose: 40.0 mg/kg/injection, schedule: Q01DX009 (ip), vehicle: Klucel (hydroxypropylcellulose) (HPC)) 0 of 6.
Take `CC(/C=C/c1ccccc1)=N\NC(=O)CN(C)C`: under setting [3], the survivor count is recorded as 5 of 6.
As for `C=C1C(=O)OC2CC(C)C3(O)CCC(C)(CC(OC(=O)C(C)C)C12)O3` (stereo not drawn), the survivor count was 6 of 6 (dose: 10.0 mg/kg/injection, schedule: Q01DX009 (ip), vehicle: saline); 6 of 6 (dose: 20.0 mg/kg/injection, schedule: Q01DX009 (ip), vehicle: saline); 3 of 6 under setting [4]; 1 of 6 under setting [5]. Moreover, the T/C under setting [4] is 129 % of control.
For `C=Cn1ccnc1C.C=Cn1ccnc1C.CC(=O)CC(C)=O.CC(=O)CC(C)=O.[Ni]`, the survivor count reads like this: (dose: 100.0 mg/kg/injection, schedule: Q04DX002 (ip), vehicle: saline with Tween-80) 1 of 6; under setting [1], 0 of 6; under setting [2], 0 of 6.
Consider `O=CC(/C=N\Nc1ccccc1)=N/Nc1ccccc1`, for which the survivor count (dose: 40.0 mg/kg/injection, schedule: Q01DX009 (ip), vehicle: saline with Tween-80) is 6 of 7.
As for `CCC(C)(OC(C)=O)C(=O)OC1C(=O)OC2CC3C(C)=CC(=O)C(O)C3(C)C3C(O)C(O)C4(C)OCC23C14` (stereo not drawn), the T/C by setting is: (dose: 0.02 mg/kg/injection, schedule: Q01DX009 (ip), vehicle: saline + alcohol) 138 % of control; (dose: 0.05 mg/kg/injection, schedule: Q01DX009 (ip), vehicle: saline + alcohol) 144 % of control; (dose: 0.19 mg/kg/injection, schedule: Q01DX009 (ip), vehicle: saline + alcohol) 149 % of control; (dose: 0.25 mg/kg/injection, schedule: Q01DX009 (ip), vehicle: saline + alcohol) 140 % of control; (dose: 0.5 mg/kg/injection, schedule: Q01DX009 (ip), vehicle: saline + alcohol) 148 % of control; (dose: 1.0 mg/kg/injection, schedule: Q01DX009 (ip), vehicle: saline + alcohol) 142 % of control. The survivor count is, setting by setting: (dose: 1.5 mg/kg/injection, schedule: Q01DX009 (ip), vehicle: saline + alcohol) 3 of 6; (dose: 4.0 mg/kg/injection, schedule: Q01DX009 (ip), vehicle: saline + alcohol) 3 of 4.
In the case of `COC(=O)CCC1(c2ccccc2)CCCC1=O` (stereo not drawn), the survivor count (dose: 50.0 mg/kg/injection, schedule: Q01DX009 (ip), vehicle: water) is reported as 4 of 6; the survivor count (dose: 200.0 mg/kg/injection, schedule: Q01DX009 (ip), vehicle: water) is 6 of 6; the survivor count (dose: 400.0 mg/kg/injection, schedule: Q01DX009 (ip), vehicle: water) is recorded as 0 of 6.
`CCCCN(CCCC)CC(O)c1cc(Cl)cc2cccnc12` (stereo not drawn): the survivor count is reported as 6 of 6 (dose: 12.5 mg/kg/injection, schedule: Q01DX009 (ip), vehicle: Klucel (hydroxypropylcellulose) (HPC)) and 2 of 6 (dose: 100.0 mg/kg/injection, schedule: Q04DX003 (ip), vehicle: Klucel (hydroxypropylcellulose) (HPC)).
Regarding `N#CCCCCNC(=O)C1CCC(=O)N1` (stereo not drawn), the survivor count under setting [6] is 6 of 6.
Turning to `Cc1ccc([N+](=O)[O-])cc1N=C=O`, the survivor count (dose: 200.0 mg/kg/injection, schedule: Q04DX003 (ip), vehicle: Klucel (hydroxypropylcellulose) (HPC)) is recorded as 6 of 6.
For the molecule `CC(C)CC(C(N)=O)c1ccccc1` (stereo not drawn), the survivor count under setting [7] is listed as 0 of 6.
Take `c1ccc(CSSCc2ccccc2)cc1`: the survivor count under setting [5] was 6 of 6.
For `O=[n+]1c2ccccc2n([O-])c2ccccc21.[Cl][Cu][Cl]`, the survivor count (dose: 25.0 mg/kg/injection, schedule: Q04DX003 (ip), vehicle: saline with Tween-80) is given as 6 of 6.
For the molecule `Nc1ccc(CCCCc2ccccc2)cc1`, the survivor count by setting is: (dose: 112.5 mg/kg/injection, schedule: Q04DX003 (ip), vehicle: saline) 6 of 6; (dose: 115.0 mg/kg/injection, schedule: Q01DX009 (ip), vehicle: saline) 5 of 6; (dose: 170.0 mg/kg/injection, schedule: Q01DX009 (ip), vehicle: saline) 0 of 6; (dose: 225.0 mg/kg/injection, schedule: Q04DX003 (ip), vehicle: saline) 0 of 6.
As for `NC(=S)c1cn(C2OC(CO)C(O)C2O)c2ncnc(N)c12` (stereo not drawn), the survivor count (dose: 7.5 mg/kg/injection, schedule: Q01DX009 (ip), vehicle: saline with Tween-80) is on record as 4 of 6.
As to `O=P(N1CCCCCC1)(N1CC1)N1CC1`, the T/C was 131 % of control (dose: 3.0 mg/kg/injection, schedule: Q01DX009 (ip), vehicle: saline); 141 % of control (dose: 11.0 mg/kg/injection, schedule: Q04DX003 (ip), vehicle: saline); 130 % of control (dose: 12.0 mg/kg/injection, schedule: Q01DX009 (ip), vehicle: saline); 130 % of control (dose: 18.0 mg/kg/injection, schedule: Q01DX009 (ip), vehicle: saline). Further, the survivor count reads like this: (dose: 100.0 mg/kg/injection, schedule: Q04DX003 (ip), vehicle: saline) 1 of 6; under setting [6], 1 of 6; (dose: 400.0 mg/kg/injection, schedule: Q04DX003 (ip), vehicle: saline) 0 of 6.
`Cc1onc(-c2c(Cl)cccc2Cl)c1C(=O)Nc1ccccc1CC1c2ccccc2CCN1C` (stereo not drawn): the survivor count is 6 of 6 (dose: 100.0 mg/kg/injection, schedule: Q01DX009 (ip), vehicle: Klucel (hydroxypropylcellulose) (HPC)) and 6 of 6 under setting [4].
For `CCN(CC)CCCC(C)NCCCN` (stereo not drawn), the survivor count by setting is: (dose: 100.0 mg/kg/injection, schedule: Q01DX009 (ip), vehicle: saline) 6 of 6; under setting [3], 4 of 6; (dose: 400.0 mg/kg/injection, schedule: Q01DX009 (ip), vehicle: saline) 0 of 6.
Regarding `O=[N+]([O-])c1ccc(Sc2ccc([N+](=O)[O-])cc2)cc1`, the T/C (dose: 100.0 mg/kg/injection, schedule: Q04DX003 (ip), vehicle: saline with Tween-80) is 130 % of control.
Regarding `CNC(=O)Oc1coc(CCl)cc1=O`, the T/C (dose: 16.5 mg/kg/injection, schedule: Q01DX009 (ip), vehicle: saline sonified) is 135 % of control; the T/C (dose: 25.0 mg/kg/injection, schedule: Q01DX009 (ip), vehicle: saline sonified) was 140 % of control; the T/C (dose: 37.5 mg/kg/injection, schedule: Q01DX009 (ip), vehicle: saline sonified) was 130 % of control [5 of 6 alive].
`O=Cc1c2ccc(Cl)cc2nc2cc(Cl)ccc12`: the survivor count (dose: 100.0 mg/kg/injection, schedule: Q01DX001 (ip), vehicle: saline with Tween-80) is recorded as 6 of 6 and the survivor count under setting [7] is on record as 6 of 6.
With `CCCCCCCCCCCCC1CC(=O)OC1=O` (stereo not drawn), under setting [6], the survivor count is 5 of 6.
